Measured values reported in PubChem BioAssay AID2685 (National Center for Advancing Translational Sciences (NCATS), 2010).
The other results are listed elsewhere or left out. Shown are side measurements of this screen, not its main read-out; they come without a call. Most of these compounds were active or inconclusive in the main read-out, so they are no random draw. Words in brackets tell the shape of the fitted curve; partial curves, single points and poor fits give uncertain potencies.

Test: qHTS Assay for Lipid Storage Modulators in Drosophila S3 Cells;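 on cell number change: cells counted by Cell Tracker Red CMTPX staining in the red channel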
Conditions: BODIPY lipid droplet fluorescence, 18-24 h; for cell number change: measured here: cell count max response, cells fed with added oleic acid
How it was run: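 Drosophila S3 cells loaded with oleic acid (400 uM, as added) and compounds at several concentrations; lipid droplets imaged by 488-nm laser-scanning cytometry, 500–530 nm intensity and object ratio to cell channel. Percent activity normalized to 20 uM Triacsin C.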

[1] = measured here: cell number channel AC50, cells fed with added oleic acid
[2] = measured here: lipid fluorescence (Fed channel) AC50, cells fed with added oleic acid

Compound | cell number change [%] | AC50 [1] | AC50 [2]
O=C(NC1CCN(C(=S)Nc2ccc(Cl)cc2)CC1)C1CCCCC1 | -2.86 | 0.731 µM [rising, partial curve, poor fit] | 
CCOC(=O)C1CCN(c2cc3c(cc2NC(=O)c2cc(OC)ccc2Br)n(C)c(=O)n3C)CC1 |  |  | 0.326 µM [rising, partial curve, poor fit]
COc1cccc(-c2nc3ccc([N+](=O)[O-])cc3o2)c1 | -4.52 | 1.64 µM [falling, partial curve, poor fit] | 4.11 µM [falling, full curve, poor fit]
Cc1c(C)c2ccc(OC(C)C(=O)NCCCN3CCOCC3)c(C)c2oc1=O (centres undefined) | 26.6 |  | 29.1 µM [rising, single point]
Cc1cc(Nc2ccc3c(c2)OCCO3)c2ccccc2n1 | -4.3 |  | 0.731 µM [rising, full curve]
CCCc1nc2ccccc2c2nc(N)nn12 | -2.43 |  | 2.59 µM [rising, full curve]
N#CCCN(C(=O)CSc1ccc2c(c1)OCCO2)c1ccc(F)cc1 | -0.809 |  | 1.03 µM [falling, full curve]
O=C(O)CN1C(=O)c2ccc(Oc3cccc4c3C(=O)N(CC(=O)O)C4=O)cc2C1=O | -14.3 |  | 0.731 µM [falling, full curve, poor fit]
O=C(O)c1cccc2c1C(=O)c1cc(Br)ccc1S2(=O)=O | -2.52 |  | 
CCN(CC)CCCN(C(=O)c1ccco1)c1nc(-c2ccc(Cl)cc2)cs1 | -12.4 |  | 20.6 µM [falling, single point]
COc1ccc(C(=O)COC(=O)c2nn(C)cc2Cl)cc1 | 1.71 |  | 2.31 µM [rising, full curve, poor fit]
CCC(C)Sc1nc2ccccc2n1CC(=O)O (centres undefined) | -69.3 | 16.4 µM [falling, single point] | 
CCC(=O)Nc1nc2nc(C)cc(=O)n2[nH]1 | -90.8 | 1.64 µM [falling, full curve] | 
O=C(COC(=O)Cc1ccc(F)cc1)NCCc1ccccc1 | -2.24 |  | 2.91 µM [rising, single point]
COc1ccc(C(CNC(=O)c2cccc(S(=O)(=O)Nc3ccccc3OC)c2)N2CCCC2)cc1 (centres undefined) | 93 | 18.4 µM [rising, single point] | 
CCn1c(O)c(/C=C2\C=NN=C2c2ccc(C)cc2)sc1=S | -3.33 | 0.092 µM [falling, full curve, poor fit] | 0.13 µM [falling, full curve, poor fit]
O=C(Nc1cccc(C(F)(F)F)c1)c1cccnc1NCCc1ccccc1 | -18.9 |  | 
O=C(Cc1cn(Cc2cccc(Cl)c2)c2ccccc12)N1CCCC1 | -0.996 |  | 0.259 µM [rising, full curve, poor fit]
COCC1CCCCN1C(=O)c1ccc(OC2CCN(CCc3ccccc3)CC2)cc1 (centres undefined) | -8.56 |  | 1.16 µM [falling, full curve, poor fit]
COc1ccc(CNC(=O)[C@@H](NC(=O)C2CCN(C(=O)[C@@H]3CCCN3C(=O)OC(C)(C)C)CC2)C(C)C)cc1 |  |  | 6.51 µM [rising, single point]

Compound | cell number change [%] | AC50 [1] | AC50 [2]
O=C(c1cc(-c2ccc(Cl)cc2)on1)N1CCCCCC1 | 30.9 |  | 6.51 µM [rising, single point]
O=C(N/C=N/OCc1ccc(Cl)cc1Cl)NOCc1c(Cl)cccc1Cl | -64.9 | 29.1 µM [falling, single point] | 29.1 µM [falling, single point]
CC(C)(C)N(Cc1cc2ccccc2[nH]c1=O)C(=O)c1cccc([N+](=O)[O-])c1 | 19.6 |  | 
O=C(c1csc2c1CCCC2)N1CCN(c2ccccc2)CC1 | 1.46 |  | 
O=[N+]([O-])c1cc2c(cc1CN1CCN(c3ccccc3F)CC1)OCO2 | 30.5 | 0.517 µM [rising, full curve, poor fit] | 
NC(=O)c1ccc(N2CCNC(=O)C2)c([N+](=O)[O-])c1 | -19 |  | 0.206 µM [rising, single point]
CC(C)[N+](C)(C)CC#CC(O)(c1ccccc1)c1ccccc1 | -14 |  | 6.51 µM [falling, single point]
CCCCN(C)CCNC(=O)Cn1c(=O)sc2ccccc21 | 11.6 |  | 0.00517 µM [falling, full curve, poor fit]
CCc1cc2c(=O)c(-c3nc4ccccc4n3C)coc2c(CN2CCCCC2)c1O | 19.4 |  | 29.1 µM [rising, single point]
CN(C)CC(C)(C)CNS(=O)(=O)c1ccc(OC(F)(F)F)cc1 | -12.1 |  | 6.51 µM [falling, partial curve, poor fit]
Cc1nn(CC(O)COc2ccc3c(c2)CCC3)c(C)c1Br (centres undefined) | -39.4 | 29.1 µM [falling, single point] | 29.1 µM [falling, single point]
C[C@H]1[C@H](c2ccccc2)C[C@@H](C(=O)O)C1(C)C | -10.7 |  | 1.64 µM [rising, partial curve, poor fit]
Cc1ccc(NC(=O)Cn2c(=O)n(CCCCC(=O)NCc3ccco3)c(=O)c3ccccc32)cc1 | 26.5 | 2.06 µM [rising, partial curve, poor fit] | 1.3 µM [rising, full curve]
CCCCn1c(N)c(N(Cc2ccccc2OC)C(=O)CC2OC(=O)c3ccccc32)c(=O)[nH]c1=O (centres undefined) | 5.94 |  | 18.4 µM [rising, partial curve]
Cc1ccc(-n2nnc3c(=O)n(CC(N)=O)cnc32)cc1 |  | 6.51 µM [rising, single point] | 
COC(=O)c1sccc1NC(=O)c1ccc(OC)c([N+](=O)[O-])c1 | 0.923 | 1.03 µM [falling, full curve] | 
Oc1ccc2ccccc2c1C=NCc1cn2ccsc2n1 | -7.18 |  | 23.1 µM [falling, single point]
COc1ccc(NC(=O)CSc2nc3[nH]ncc3c(=O)n2-c2ccccc2OC)cc1OC | 34.5 | 1.84 µM [rising, partial curve] | 5.17 µM [rising, partial curve]
Cc1cc(Br)cc2c(C(=O)NCC3CCCO3)cc(-c3cccs3)nc12 (centres undefined) | -12.2 |  | 1.64 µM [falling, partial curve]
Cc1ccc(C(=O)Cc2cc3ccccc3oc2=O)c(C)c1 | 70.9 |  | 

Structures shown so far with a tert-butyl group (2):
Compound | cell number change [%] | AC50 [1] | AC50 [2]
COc1ccc(CNC(=O)[C@@H](NC(=O)C2CCN(C(=O)[C@@H]3CCCN3C(=O)OC(C)(C)C)CC2)C(C)C)cc1 |  |  | 6.51 µM [rising, single point]
CC(C)(C)N(Cc1cc2ccccc2[nH]c1=O)C(=O)c1cccc([N+](=O)[O-])c1 | 19.6 |  | 

(more compounds)

Compound | cell number change [%] | AC50 [1] | AC50 [2]
Cc1noc(/C=C/N(C)C)c1S(=O)(=O)N(C)Cc1ccc(F)cc1 |  |  | 29.1 µM [falling, single point]
Cc1cccc(N2CC(C(=O)Nc3nc4ccc(S(C)(=O)=O)cc4s3)CC2=O)c1C (centres undefined) | 14.3 |  | 0.103 µM [falling, partial curve, poor fit]
Cc1oc(-c2ccccc2F)nc1CSCC(=O)NCc1ccc2c(c1)OCO2 | -1.28 |  | 6.51 µM [falling, single point]
COc1cc(/C=N/Nc2ccc(Cl)nn2)cc(OC)c1O | 9.91 |  | 0.291 µM [rising, full curve]
O=C(CCn1c(=S)oc2ccccc21)N1CCN(c2ccc(F)cc2)CC1 | 16 |  | 
CCOC(=O)N1CCC(Nc2cc(C)nc3c(-c4ccccc4OC)c(C)nn23)CC1 | 10.9 |  | 0.092 µM [rising, full curve]
Cc1ccccc1CCN(C(=O)c1csnn1)C(C(=O)NC1CCCC1)c1ccncc1 (centres undefined) | 10.7 |  | 29.1 µM [falling, single point]
COc1ccccc1N1CCN(S(=O)(=O)c2cn(C)nc2C)CC1 | 26.7 |  | 6.51 µM [rising, partial curve, poor fit]
CCOC(=O)c1cc2c(N)c(C(=O)c3cc(C#N)c(SC)nc3C)sc2nc1C | 19.4 |  | 0.58 µM [rising, full curve]
COc1ccc(-n2nc(C(=O)NCC(=O)NC3CCCC(C)C3C)c3ccccc3c2=O)cc1 (centres undefined) | -6.76 |  | 
COc1cccc(NC(=O)CSc2ccc(-c3sc(C)nc3C)nn2)c1 | -8.5 |  | 4.47 µM [rising, full curve, poor fit]
CCOC(=O)c1ccc(NC(=O)CN(Cc2ccc(Cl)cc2)S(C)(=O)=O)cc1 | 34.7 | 5.17 µM [rising, partial curve] | 6.51 µM [rising, single point]
CC(C)=C1C2CCC1C(C(=O)NCc1ccccc1)C2C(=O)O (centres undefined) |  |  | 18.4 µM [falling, partial curve]
COCC(C)n1c(SCc2nc(N)nc(Nc3ccccc3C)n2)nc2ccccc2c1=O (centres undefined) | 27.3 | 0.164 µM [rising, full curve, poor fit] | 9.2 µM [rising, partial curve]
CCCc1[nH]nc2c1C(c1ccc(OC)c(CSC3=NCCS3)c1)C(C#N)=C(N)O2 (centres undefined) | 15.1 | 0.731 µM [rising, single point] | 0.082 µM [rising, partial curve, poor fit]
CCN(CC(=O)NCc1cccs1)C(=O)c1cc(S(=O)(=O)N2CCOCC2)ccc1C | 23.7 |  | 6.51 µM [falling, partial curve]
O=C(N/N=C/c1ccc(N2CCOCC2)c([N+](=O)[O-])c1)c1ccc(F)cc1 | 52.1 | 6.51 µM [rising, partial curve] | 16.4 µM [rising, partial curve]
COc1cccc(C(=O)N2CCN(C(=O)C3CC3)CC2)c1 | 15.7 |  | 29.1 µM [rising, single point]
